Experimental data: PubChem BioAssay AID504648 (National Center for Advancing Translational Sciences (NCATS), 2011)
Hit rate of the full screen: of about 390,000 compounds, about 610 (0.16%) were called active. The inconclusive results got no clear call from the source; some entries with a clear call stand among them for comparison. Calls follow the shape of the dose curve; as a rule, active = well fitted inhibition curve with a large enough effect; inconclusive = small, poorly fitted or top-dose-only effect, or effect the other way, or another doubt; inactive = no such curve, though single readings can be large or run the other way. A potency beside an inconclusive call is a rough fit, not a confirmed value.

experiment: Nrf2 qHTS screen for inhibitors: counterscreen for cytotoxicity; conditions: A549 ARE-Fluc cells, CellTiter-Fluor viability, 18-24 h; activity change, negative = cytotoxicity: at 46 µM (top of the series)
Procedure, shortened: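 Cytotoxicity counterscreen: CellTiter-Fluor fluorescence was measured in A549 ARE_Fluc cells after 18-24 h of compound exposure in a concentration series. The subsequent BugLite luminescent read reports ARE-luciferase activity.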
% is scaled to controls: 0 for no effect and ±100 for the full control effect; potency is read from the fitted curve at half-maximal effect.

Compound	Potency	activity change, negative = cytotoxicity
O=C1C=C(N2CCOCC2)c2ccccc2C1=O	inconclusive: 23.1 µM [falling, single point]	–
CN1CCc2nc(SCc3ccc(Cl)cc3)c(C#N)c(-c3cccs3)c2C1	–	inactive: 17.3%
Cc1ccc(Cn2c(O)c(N=NC(=S)Nc3ccccc3F)c3ccccc32)cc1	inconclusive: 23.1 µM [falling, single point]	–
O=C(NC1CCCC1)c1cnn(-c2ccc(F)cc2F)c1C1CCNCC1	–	inactive: -1.94%
O=C(NNC(=O)c1ccccc1-n1cccc1)c1ccc(Cl)cc1Cl	inconclusive: 29.1 µM [activator, partial curve, poor fit]	–
Cc1cccc(-c2nnc(NC(=O)c3ccc(Cl)cc3)o2)c1	inconclusive: 16.4 µM [falling, partial curve, poor fit]	–
CN(Cc1ccccc1)Cc1c(O)ccc2c(=O)c(-c3ccccc3)c(C(F)(F)F)oc12	–	inactive: 5.76%
COc1ccccc1OCCCCn1c(C2CC(=O)N(c3ccccc3Cl)C2)nc2ccccc21 (stereo not drawn)	inconclusive: 29.1 µM [falling, single point]	–
CCOC(=O)Nc1cc2c(c(N)n1)N=C(c1ccccc1)CN2	inconclusive: 11.6 µM [falling, partial curve, poor fit]	–
CSC1=NC(C)(C)C=C(/C=C/c2c(Cl)cccc2Cl)N1	–	inactive: 3.66%
COc1ccc(-c2cc(C(=O)Nc3cccc(C(C)=O)c3)no2)cc1OC	–	inactive: -3.68%
CC(C(=O)Nc1ccccc1Br)N1c2cccc3cccc(c23)S1(=O)=O (stereo not drawn)	–	inactive: 1.72%
CC(C)CCCCCCNC(=S)Nc1ccc(S(=O)(=O)N2CCOCC2)cc1	inconclusive: 18.4 µM [falling, single point]	–
Cc1cccc(N2C(=O)N(c3ccccc3C)C3CS(=O)(=O)CC32)c1 (stereo not drawn)	–	inactive: 1.49%
COc1ccc(S(=O)(=O)c2c(SC)nn(CC(=O)Nc3ccc(C)c(Cl)c3)c2N)cc1	inconclusive: 16.4 µM [falling, single point]	–
CCc1nc2c(cnn2-c2ccc(C)cc2)c(=O)n1-c1ccc(C)cc1	inconclusive: 7.31 µM [activator, partial curve, poor fit]	–
CCCc1c(C(=O)N/N=C/c2cccc(OCc3ccc(F)cc3)c2)nnn1-c1nonc1N	inconclusive: 18.4 µM [falling, single point]	–
CCOC(=O)c1ccc(NC(=S)NN)cc1	inconclusive: 0.0164 µM [activator, full curve, poor fit]	–
CC(C)Cc1nc(N2CCN(C(=O)c3ccco3)CC2)c(C#N)c2c1CCCC2	inconclusive: 23.1 µM [falling, single point]	–
CCC(=O)Nc1ccc(S(=O)(=O)Nc2cccc(C)c2)cc1OC	–	inactive: -8.87%
O=C(O)c1cccc(Nc2ccc3nonc3c2[N+](=O)[O-])c1	inconclusive: 23.1 µM [falling, partial curve, poor fit]	–
Cc1ccccc1C(=O)Nc1sc(C)c(C)c1C(=O)c1ccccc1	inconclusive: 32.6 µM [falling, single point]	–

Compound	Potency	activity change, negative = cytotoxicity
O=C(Nc1cccc(Cl)c1)Nc1cc(S(=O)(=O)N2CCCCC2)ccc1Cl	inconclusive: 23.1 µM [falling, single point]	–
O=C(NCc1ccc(F)cc1)c1ccc2c(c1)N(Cc1c(F)cccc1Cl)C(=O)CS2	–	inactive: -8.38%
CCn1c(SCC(=O)Nc2ccccc2)nc2ccccc2c1=O	inconclusive: 29.1 µM [falling, single point]	–
CCCc1ccc(S(=O)(=O)N2CCN(C(C)C(=O)NCc3ccc(OC)cc3)CC2)cc1 (stereo not drawn)	inconclusive: 29.1 µM [falling, partial curve, poor fit]	–
COc1ccc(C(CCN(Cc2ccc(OC)c(OC)c2)C(C)=O)c2ccccc2)cc1 (stereo not drawn)	inconclusive: 29.1 µM [activator, single point]	–
O=c1cc(N2CCOCC2)[nH]c(=O)n1C1CCCCC1	–	inactive: 4.8%
Cc1ccc(NC(=O)CN2C(=O)COc3ccc(S(=O)(=O)N4CCCCCC4)cc32)cc1Cl	inconclusive: 25.9 µM [falling, single point]	–
CN1CCCc2cc3c(C(F)(F)F)cc(=O)oc3nc21	inconclusive: 20.6 µM [activator, partial curve]	–
Clc1ccccc1N1CCN(Cc2c[nH]c3ccccc23)CC1	–	inactive: -25.4%
CCOCCCNC(=O)/C(C#N)=C/c1cc(Br)c(O)c(Br)c1	inconclusive: 18.4 µM [falling, partial curve]	–
O=[N+]([O-])c1cccc(-c2csc(Nc3ccccc3)n2)c1	inconclusive: 18.4 µM [falling, single point]	–
Cc1cc(C)cc(-n2nnnc2SCC(=O)Nc2nc(-c3ccc(F)cc3)cs2)c1	inconclusive: 16.4 µM [falling, partial curve, poor fit]	–
CCCc1cc(C(=O)Nc2sc3c(c2C#N)CCC3)no1	–	inactive: -4.43%
N#C/C(=C\c1ccc(-c2ccccc2)cc1)c1nc(-c2ccco2)cs1	–	inactive: -4.29%
Cc1cccc(COCC(CC(C)C)N2CCN(C(=O)c3ccc(C(C)(C)C)cc3)CCC2=O)c1 (stereo not drawn)	inconclusive: 18.4 µM [falling, single point]	–
CCOc1cc(C2C(C(=O)OC)=C(C)NC3=C2C(=O)c2ccccc23)ccc1OC (stereo not drawn)	inconclusive: 16.4 µM [falling, partial curve, poor fit]	–
O=C(/C=C/c1ccc(NC(=O)c2ccccc2-c2ccccc2C(=O)O)cc1)c1ccccc1	–	inactive: -15.9%
Cc1ccc(-n2nc3c(N4CCC(C(=O)NCc5ccc(C)o5)CC4)nnc(C)c3c2C)cc1	inconclusive: 18.4 µM [falling, partial curve, poor fit]	–
Fc1c(F)c(C(F)(F)F)c(F)c(F)c1N/N=C\c1cccs1	inconclusive: 13 µM [falling, partial curve, poor fit]	–
COc1ccc(NC(=S)N2CCN(c3ccc([N+](=O)[O-])cc3)CC2)cc1OC	inconclusive: 8.2 µM [falling, partial curve, poor fit]	–
CCN(CC)S(=O)(=O)c1cccc(C(=O)NN2Cc3ccccc3C2=N)c1	inconclusive: 29.1 µM [activator, single point]	–

Quoted at random: 3 entries already listed.
Compound	Potency	activity change, negative = cytotoxicity
CCCc1c(C(=O)N/N=C/c2cccc(OCc3ccc(F)cc3)c2)nnn1-c1nonc1N	inconclusive: 18.4 µM [falling, single point]	–
Fc1c(F)c(C(F)(F)F)c(F)c(F)c1N/N=C\c1cccs1	inconclusive: 13 µM [falling, partial curve, poor fit]	–
CC(C)Cc1nc(N2CCN(C(=O)c3ccco3)CC2)c(C#N)c2c1CCCC2	inconclusive: 23.1 µM [falling, single point]	–
